These results are taken from article PMC11611271, “Rapid prediction of key residues for foldability by machine learning model enables the design of highly functional libraries with hyperstable constrained peptide scaffolds” (PLOS Computational Biology, 2024).

Chains of the proteins cited; added tags and fusions are not shown. Residues count along the entry.
UniProt P01732, residues 22-182: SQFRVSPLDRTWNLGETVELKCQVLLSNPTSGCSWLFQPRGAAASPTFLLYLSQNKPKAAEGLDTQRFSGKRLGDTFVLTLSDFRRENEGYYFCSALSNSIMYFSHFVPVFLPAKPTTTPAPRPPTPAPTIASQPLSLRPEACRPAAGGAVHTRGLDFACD
UniProt P10747, residues 19-152: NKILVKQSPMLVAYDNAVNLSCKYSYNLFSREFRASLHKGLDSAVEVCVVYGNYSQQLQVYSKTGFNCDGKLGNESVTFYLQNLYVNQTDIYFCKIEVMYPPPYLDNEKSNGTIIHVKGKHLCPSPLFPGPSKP

Results are given in words; binding and its absence hold for the method and conditions named.

One assay concerns the target T1, CD8α-Fc (UniProt P01732 22-182).
T1 construct: CD8 alpha chain, bought as Fc fusion; captured on a Protein A sensor chip by its Fc; source: bought: R&D, #AVI10927
The assay can be described thus: condition: approximately 100 μM (start of the dilution series); SPR; Biacore S200, Fc-fusion target on Sensor Chip Protein A, peptide flowed, single-cycle kinetics, three-fold dilution series from approximately 100 μM, 25°C, 30 μl/min, HBS-EP with 5% DMSO; 1:1 binding (kinetic) model, or no binding seen; both purified. For orientation: Surface plasmon resonance follows binding to a sensor surface in real time, without labels.

The next assay has as its target CD28-Fc (Homo sapiens, UniProt P10747). Described as above.

B1: 5ji4-CD8-8 (peptide)
chain: PCECLVTPYKDDYKSSEECERLCRKLGVTNCRVHCG
As for B1, in the assay with CD8α-Fc, the binding entry is on record as “no binding”.

B2: 5ji4-CD28-4 (peptide)
chain: PCECEDTTFFIIFNSSEECERLCRKLGVTNCRVHCG
With B2, the binding result in the assay with CD28-Fc is on record as “no binding”.
